Source: PubChem BioAssay AID2003 (Broad Institute, 2009)
The list shows a part of the results. Entries with a potency or affinity are not part of this list. Entries without a call are filed as inconclusive in the source.

experiment: PubChem AID 2003; settings: H4 cells, SNCA 5'UTR luciferase reporter, luminescence; at 12 µM (top of the series) unless noted

| Structure (SMILES) | activation |
| --- | --- |
| Cc1nn(CC(C)C)c(Cl)c1C(=O)NC1CCC(C)CC1 (stereo not given) | 90.8% |
| CC(C)(C)c1ccc(OC(=O)N2CCCCC2)cc1 | 93.9% |
| CN1C(=O)/C(=C/c2ccc(N3CCCCCC3)o2)C(=O)NC1=S | 78.3% |
| COc1ccc2nc(NC3=NCCN3)sc2c1 | 106% |
| N=C1c2ccccc2CN1CC(=O)c1ccccc1 | 140% [at 6 µM] |
